Values from PubChem BioAssay AID652243 (Drosophila RNAi Screening Center, 2013)
Assay: 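Fly regulators of androgen-dependent reporter output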 (primary screen). Cell system: Drosophila S2R+ cells. Knock-down reagent: long dsRNA against Drosophila genes. Timing: 72 h (48 h, then 24 h hormone). Challenge: synthetic androgen R1881 at 10 nM for 24 h. Detection: 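Firefly light from an androgen-responsive reporter and Renilla control light per well, raw and unnormalised, for each of two replicates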. Scale: firefly reporter light: higher = more light from androgen-responsive reporter; Renilla control light: higher = more constitutive control signal (cell number, transfection). Call rule: 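Hit when the log firefly-to-Renilla ratio dropped or increased by a fixed fold versus the mean of GFP or LacZ controls across duplicate plates; lowering cut given as 1.5 and as 3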. Meaning of the calls: active = hit: reporter lowered or raised; inactive = no hit.
In all, the deposit lists about 24,000 reagents; this is a random part of those that have a named target and a result. Over the whole deposit, 246 (1%) are marked active. 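Plates not normalised; calls are printed but the firefly/Renilla ratio behind them is not deposited; fold cut for lowering reported inconsistently.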 Raw values vary from plate to plate and are shown uncorrected. A plus sign joins genes that one reagent is predicted to hit. The record does not give: the amount of reagent.

target	dsRNA	firefly reporter light, replicate 1	firefly reporter light, replicate 2	Renilla control light, replicate 1	Renilla control light, replicate 2	Call
Fcp1 (TFIIF-interacting CTD phosphatase)	DRSC04121	5.98e5	6.29e5	9.61e5	9.03e5	inactive
Fcp1 (TFIIF-interacting CTD phosphatase)	DRSC26715	4.16e5	4.40e5	8.40e5	7.10e5	inactive
Fcp1 (TFIIF-interacting CTD phosphatase)	DRSC36881					inactive
CG7378	DRSC20041	1.32e5	1.25e5	4.78e5	2.46e5	inactive
CG7378	DRSC36826					inactive
Spn77Bb + Spn77Bc	DRSC10689	2.32e5	2.05e5	2.43e6	1.67e6	inactive
Spn77Bb + Spn77Bc	DRSC11793	2.62e5	2.35e5	2.74e6	2.68e6	inactive
CG6409	DRSC10630	5.01e5	4.21e5	4.54e6	3.42e6	inactive
CG6409	DRSC22330	5.54e5	4.58e5	2.05e6	2.31e6	inactive
CG6409	DRSC27637	2.28e5	2.28e5	4.75e5	6.52e5	inactive
sws (swiss cheese)	DRSC18843	3.23e5	3.53e5	3.04e6	2.24e6	inactive
CG42486 + CG14933	DRSC26454	2.58e5	2.78e5	5.41e5	5.91e5	inactive
CG13230	DRSC06350	4.38e5	2.66e5	1.80e6	1.92e6	inactive
CG13230	DRSC26778	4.52e5	3.13e5	7.57e5	3.92e5	inactive
Act88F (Actin 88F)	DRSC14105	75062	77460	1.14e6	1.44e6	inactive
Act88F (Actin 88F)	DRSC25009	7.33e5	7.37e5	9.45e5	8.91e5	inactive
Pfdn6 (Prefoldin 6)	DRSC10915	2.08e5	1.93e5	2.90e6	1.97e6	inactive
TyrRS (Tyrosyl-tRNA synthetase)	DRSC10430	47614	46516	4.52e5	3.32e5	inactive
TyrRS (Tyrosyl-tRNA synthetase)	DRSC27145	1.96e5	2.65e5	6.44e5	5.97e5	inactive
PGAP2 (Post-GPI attachment to proteins 2)	DRSC00632	6.17e5	7.85e5	1.84e6	1.23e6	inactive
PGAP2 (Post-GPI attachment to proteins 2)	DRSC28496	3.15e5	6.03e5	7.06e5	1.57e6	inactive
mag (magro)	DRSC11787	35866	43985	2.89e5	3.99e5	inactive
mag (magro)	DRSC25641	5.57e5	7.32e5	6.77e5	8.74e5	inactive
CG4004	DRSC19791	97194	1.65e5	8.96e5	8.97e5	inactive
CG4004	DRSC19882	6.22e5	5.49e5	4.00e6	4.25e6	inactive
CG4004	DRSC26904	3.05e5	3.25e5	7.20e5	8.90e5	inactive
CG32107	DRSC09221	2.42e5	99599	5.71e5	2.99e5	inactive
CG33543	DRSC00384	69713	68701	6.77e5	6.27e5	inactive
CG33543	DRSC00385	54228	82392	5.09e5	9.37e5	inactive
kumpel (kin of rumpel)	DRSC14883	1.33e5	1.77e5	2.55e6	2.57e6	inactive
kumpel (kin of rumpel)	DRSC16459	2.27e5	2.34e5	2.19e6	1.94e6	inactive
kumpel (kin of rumpel)	DRSC16460	2.54e5	1.75e5	2.83e6	2.93e6	inactive
kumpel (kin of rumpel)	DRSC16461	2.24e5	1.72e5	2.15e6	2.48e6	inactive
kumpel (kin of rumpel)	DRSC16462	1.91e5	2.68e5	2.15e6	2.90e6	inactive
kumpel (kin of rumpel)	DRSC16463	2.44e5	2.43e5	3.49e6	3.18e6	inactive
kumpel (kin of rumpel)	DRSC25593	8.52e5	8.66e5	1.18e6	1.21e6	inactive
kumpel (kin of rumpel)	DRSC27664	4.25e5	3.31e5	5.55e5	4.84e5	inactive
CG16800	DRSC02518	2.05e5	2.20e5	9.91e5	1.45e6	inactive
CG16800	DRSC28237	4.60e5	6.22e5	1.09e6	1.43e6	inactive
CG12688 (retired record)	DRSC17877	2.53e5	3.41e5	1.52e6	1.50e6	inactive
CG12688 (retired record)	DRSC17878	8.95e5	1.11e6	4.06e6	2.24e6	inactive
nkd (naked cuticle)	DRSC11376	2.91e5	1.36e5	2.62e6	1.55e6	inactive
nkd (naked cuticle)	DRSC26962	8.08e5	5.44e5	1.14e6	6.33e5	inactive
Nop60B (Nucleolar protein at 60B)	DRSC04627	1.03e6	1.03e6	1.52e6	1.57e6	inactive
CG15043	DRSC19619	3.55e5	4.69e5	2.35e6	2.50e6	inactive
CG15043	DRSC29563	4.86e5	4.27e5	8.16e5	8.16e5	inactive
CG14826	DRSC10197	1.24e5	1.74e5	1.46e6	1.80e6	inactive
Fmo-2 (Flavin-containing monooxygenase 2)	DRSC04983	6.19e5	4.81e5	1.21e6	1.19e6	inactive
Ilk (Integrin linked kinase)	DRSC11868	4.91e5	6.08e5	2.89e6	3.76e6	inactive
Ilk (Integrin linked kinase)	DRSC36792					inactive
CG31551	DRSC12159	4.38e5	5.25e5	3.85e6	3.21e6	inactive
CG31551	DRSC22403	3.87e5	6.32e5	9.77e5	2.14e6	inactive
CG31551	DRSC27808	2.41e5	2.24e5	7.28e5	8.28e5	inactive
CG1927	DRSC08146	1.16e6	9.03e5	2.41e6	1.16e6	inactive
CG14183	DRSC10182	42822	38784	3.19e5	3.59e5	inactive
DIP2 (DISCO Interacting Protein 2)	DRSC08582	1.08e6	1.33e6	1.09e6	1.23e6	inactive
CG34208	DRSC38718	1.10e6	1.14e6	1.88e6	2.24e6	inactive
CG32079	DRSC22636	6.21e5	7.20e5	1.39e6	1.38e6	inactive
Lcp65Ag3 (Larval cuticle protein)	DRSC10345	6.26e5	6.68e5	2.48e6	1.53e6	inactive
CG13226	DRSC06346	2.53e5	3.08e5	1.30e6	1.17e6	inactive
p53	DRSC17024	97920	74308	8.02e5	8.15e5	inactive
Sec5 (Secretory 5)	DRSC00714	5.65e5	9.27e5	1.15e6	1.42e6	inactive
eIF5 (eukaryotic translation initiation factor 5)	DRSC20165	88897	92964	4.34e5	5.47e5	inactive
CG1724	DRSC20548	1.55e5	2.52e5	6.74e5	6.65e5	inactive
CG1724	DRSC25668	8.70e5	1.06e6	5.94e5	6.93e5	inactive
l(2)03659 (lethal (2) 03659)	DRSC07269	5.03e5	3.25e5	2.90e6	2.34e6	inactive
l(2)03659 (lethal (2) 03659)	DRSC07638	3.15e5	2.23e5	1.95e6	1.71e6	inactive
mRpL34 (mitochondrial ribosomal protein L34)	DRSC38732	6.13e5	4.83e5	1.36e6	1.53e6	inactive
CG15594	DRSC12280	61445	94232	1.75e6	1.92e6	inactive
CCT7 (Chaperonin containing TCP1 subunit 7)	DRSC16410	98256	1.20e5	1.87e6	2.13e6	inactive
AOX1 (Aldehyde oxidase 1)	DRSC15339	1.15e5	1.01e5	3.92e5	5.57e5	inactive
AOX1 (Aldehyde oxidase 1)	DRSC29234	4.80e5	7.13e5	7.62e5	1.06e6	inactive
timeout	DRSC12950	1.06e5	1.56e5	3.87e5	3.40e5	inactive
timeout	DRSC17078	1.57e5	76228	1.19e6	8.43e5	inactive
timeout	DRSC17079	1.42e5	1.24e5	2.32e6	2.82e6	inactive
timeout	DRSC17080	83944	76289	8.12e5	1.42e6	inactive
timeout	DRSC17081	1.32e5	1.08e5	2.08e6	1.81e6	inactive
timeout	DRSC21535	7.43e5	7.77e5	1.01e6	6.95e5	inactive

Already shown: 4 of the entries above.
target	dsRNA	firefly reporter light, replicate 1	firefly reporter light, replicate 2	Renilla control light, replicate 1	Renilla control light, replicate 2	Call
CG1724	DRSC25668	8.70e5	1.06e6	5.94e5	6.93e5	inactive
l(2)03659 (lethal (2) 03659)	DRSC07269	5.03e5	3.25e5	2.90e6	2.34e6	inactive
l(2)03659 (lethal (2) 03659)	DRSC07638	3.15e5	2.23e5	1.95e6	1.71e6	inactive
mRpL34 (mitochondrial ribosomal protein L34)	DRSC38732	6.13e5	4.83e5	1.36e6	1.53e6	inactive
